Test results from article PMC4658663.
No constants are given. Whether binding was seen depends on the method and setting. In cells and extracts the contact can be indirect. Here binding means that the protein was enriched with, or labelled near, the bait; the list need not be complete. For some assays here: Tags and fused reporters may be left off the sequences shown.

Sequences of proteins named here, by UniProt entry; tags and fusion partners are left off.
UniProt Q14160: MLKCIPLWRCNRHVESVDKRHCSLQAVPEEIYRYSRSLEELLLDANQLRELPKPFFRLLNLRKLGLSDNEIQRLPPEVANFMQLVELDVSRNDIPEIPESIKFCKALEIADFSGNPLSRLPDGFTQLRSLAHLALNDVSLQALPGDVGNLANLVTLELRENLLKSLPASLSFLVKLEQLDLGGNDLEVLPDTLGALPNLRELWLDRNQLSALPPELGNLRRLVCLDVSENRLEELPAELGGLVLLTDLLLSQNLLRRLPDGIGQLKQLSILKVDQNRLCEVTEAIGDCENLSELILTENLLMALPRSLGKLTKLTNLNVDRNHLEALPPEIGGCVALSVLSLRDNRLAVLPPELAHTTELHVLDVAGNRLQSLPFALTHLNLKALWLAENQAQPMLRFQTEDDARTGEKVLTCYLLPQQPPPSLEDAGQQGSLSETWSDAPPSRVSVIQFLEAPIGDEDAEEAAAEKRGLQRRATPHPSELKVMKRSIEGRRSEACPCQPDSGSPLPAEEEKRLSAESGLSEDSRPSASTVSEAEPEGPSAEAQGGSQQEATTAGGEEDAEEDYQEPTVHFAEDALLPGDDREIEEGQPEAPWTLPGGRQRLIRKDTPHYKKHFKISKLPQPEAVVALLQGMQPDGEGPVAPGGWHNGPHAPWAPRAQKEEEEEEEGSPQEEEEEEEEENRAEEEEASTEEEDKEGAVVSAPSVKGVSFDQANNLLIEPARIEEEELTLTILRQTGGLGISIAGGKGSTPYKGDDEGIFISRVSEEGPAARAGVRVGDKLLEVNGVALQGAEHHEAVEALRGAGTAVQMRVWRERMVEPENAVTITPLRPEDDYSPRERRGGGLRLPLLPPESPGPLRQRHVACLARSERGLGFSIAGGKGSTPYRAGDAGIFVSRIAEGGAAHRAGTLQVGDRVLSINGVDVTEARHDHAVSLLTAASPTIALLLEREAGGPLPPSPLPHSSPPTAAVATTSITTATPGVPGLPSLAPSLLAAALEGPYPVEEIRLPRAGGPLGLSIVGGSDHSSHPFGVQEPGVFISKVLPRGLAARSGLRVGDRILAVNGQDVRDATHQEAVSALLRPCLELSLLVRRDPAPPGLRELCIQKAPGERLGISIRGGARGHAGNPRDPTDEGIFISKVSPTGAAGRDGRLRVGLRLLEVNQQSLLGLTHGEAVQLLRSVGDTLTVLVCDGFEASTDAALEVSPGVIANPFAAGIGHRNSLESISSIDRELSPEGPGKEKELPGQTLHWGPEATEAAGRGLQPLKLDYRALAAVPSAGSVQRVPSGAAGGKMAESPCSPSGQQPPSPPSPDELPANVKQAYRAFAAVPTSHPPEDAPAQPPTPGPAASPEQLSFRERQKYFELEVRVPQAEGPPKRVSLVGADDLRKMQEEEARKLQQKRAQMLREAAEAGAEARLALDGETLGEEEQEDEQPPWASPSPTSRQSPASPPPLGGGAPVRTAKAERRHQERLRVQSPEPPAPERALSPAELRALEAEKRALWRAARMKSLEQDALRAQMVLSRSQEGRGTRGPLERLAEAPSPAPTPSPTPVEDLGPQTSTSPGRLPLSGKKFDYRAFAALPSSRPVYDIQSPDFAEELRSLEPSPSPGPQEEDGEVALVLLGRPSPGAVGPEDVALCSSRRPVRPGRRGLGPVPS
UniProt P25100: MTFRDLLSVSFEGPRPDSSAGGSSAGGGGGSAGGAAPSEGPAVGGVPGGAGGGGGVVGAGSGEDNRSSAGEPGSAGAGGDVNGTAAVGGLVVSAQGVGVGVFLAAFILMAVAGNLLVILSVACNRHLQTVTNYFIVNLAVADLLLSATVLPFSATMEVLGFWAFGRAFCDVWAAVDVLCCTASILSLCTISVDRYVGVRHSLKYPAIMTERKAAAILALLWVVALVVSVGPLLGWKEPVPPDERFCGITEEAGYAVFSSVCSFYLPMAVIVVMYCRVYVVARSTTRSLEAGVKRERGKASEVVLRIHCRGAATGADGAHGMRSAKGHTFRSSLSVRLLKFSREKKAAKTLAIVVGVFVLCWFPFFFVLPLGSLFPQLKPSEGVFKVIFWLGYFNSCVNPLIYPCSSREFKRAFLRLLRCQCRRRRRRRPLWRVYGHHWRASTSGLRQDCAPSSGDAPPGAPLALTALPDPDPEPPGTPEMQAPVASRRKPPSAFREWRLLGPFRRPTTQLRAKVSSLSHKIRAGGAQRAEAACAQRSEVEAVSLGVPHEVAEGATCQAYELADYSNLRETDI
UniProt Q14155: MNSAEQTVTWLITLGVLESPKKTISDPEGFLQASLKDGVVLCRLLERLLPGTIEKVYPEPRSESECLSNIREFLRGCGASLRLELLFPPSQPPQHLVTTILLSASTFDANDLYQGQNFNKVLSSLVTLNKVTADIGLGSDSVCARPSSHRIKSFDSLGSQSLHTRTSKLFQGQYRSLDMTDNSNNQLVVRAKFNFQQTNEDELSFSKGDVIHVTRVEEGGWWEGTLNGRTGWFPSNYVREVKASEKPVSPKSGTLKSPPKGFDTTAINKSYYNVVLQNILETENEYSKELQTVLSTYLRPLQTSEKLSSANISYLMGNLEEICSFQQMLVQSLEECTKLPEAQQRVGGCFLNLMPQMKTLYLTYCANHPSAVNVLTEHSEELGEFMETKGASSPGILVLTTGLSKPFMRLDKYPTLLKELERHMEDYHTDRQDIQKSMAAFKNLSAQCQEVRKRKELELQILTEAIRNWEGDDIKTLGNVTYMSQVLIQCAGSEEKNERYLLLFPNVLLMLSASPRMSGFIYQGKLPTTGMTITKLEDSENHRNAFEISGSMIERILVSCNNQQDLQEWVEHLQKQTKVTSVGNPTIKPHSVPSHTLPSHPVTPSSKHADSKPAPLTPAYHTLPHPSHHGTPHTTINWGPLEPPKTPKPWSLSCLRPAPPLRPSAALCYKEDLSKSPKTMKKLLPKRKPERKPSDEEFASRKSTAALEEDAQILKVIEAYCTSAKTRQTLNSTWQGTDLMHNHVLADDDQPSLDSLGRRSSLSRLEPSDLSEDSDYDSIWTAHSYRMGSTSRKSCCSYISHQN
UniProt P28482: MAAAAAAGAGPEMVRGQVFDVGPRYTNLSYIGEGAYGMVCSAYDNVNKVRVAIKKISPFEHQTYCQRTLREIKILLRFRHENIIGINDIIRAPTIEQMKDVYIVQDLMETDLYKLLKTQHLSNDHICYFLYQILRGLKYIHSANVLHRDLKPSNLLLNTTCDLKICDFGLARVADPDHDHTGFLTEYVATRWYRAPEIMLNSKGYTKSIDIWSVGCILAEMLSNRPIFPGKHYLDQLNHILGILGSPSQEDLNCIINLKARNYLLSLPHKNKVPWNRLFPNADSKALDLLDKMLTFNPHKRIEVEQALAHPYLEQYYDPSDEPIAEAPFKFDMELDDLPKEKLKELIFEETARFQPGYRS
UniProt P27361: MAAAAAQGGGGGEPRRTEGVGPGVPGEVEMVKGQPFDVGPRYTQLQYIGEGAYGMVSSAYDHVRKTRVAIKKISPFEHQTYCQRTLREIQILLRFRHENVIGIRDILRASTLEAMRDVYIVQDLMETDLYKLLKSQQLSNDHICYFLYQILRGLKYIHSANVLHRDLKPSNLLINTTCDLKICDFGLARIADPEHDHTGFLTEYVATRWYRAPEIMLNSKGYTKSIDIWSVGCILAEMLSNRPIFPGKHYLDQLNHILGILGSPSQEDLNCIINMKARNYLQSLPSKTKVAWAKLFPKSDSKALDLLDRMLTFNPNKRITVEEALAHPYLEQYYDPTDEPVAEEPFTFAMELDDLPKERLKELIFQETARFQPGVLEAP
UniProt Q9Y2X7: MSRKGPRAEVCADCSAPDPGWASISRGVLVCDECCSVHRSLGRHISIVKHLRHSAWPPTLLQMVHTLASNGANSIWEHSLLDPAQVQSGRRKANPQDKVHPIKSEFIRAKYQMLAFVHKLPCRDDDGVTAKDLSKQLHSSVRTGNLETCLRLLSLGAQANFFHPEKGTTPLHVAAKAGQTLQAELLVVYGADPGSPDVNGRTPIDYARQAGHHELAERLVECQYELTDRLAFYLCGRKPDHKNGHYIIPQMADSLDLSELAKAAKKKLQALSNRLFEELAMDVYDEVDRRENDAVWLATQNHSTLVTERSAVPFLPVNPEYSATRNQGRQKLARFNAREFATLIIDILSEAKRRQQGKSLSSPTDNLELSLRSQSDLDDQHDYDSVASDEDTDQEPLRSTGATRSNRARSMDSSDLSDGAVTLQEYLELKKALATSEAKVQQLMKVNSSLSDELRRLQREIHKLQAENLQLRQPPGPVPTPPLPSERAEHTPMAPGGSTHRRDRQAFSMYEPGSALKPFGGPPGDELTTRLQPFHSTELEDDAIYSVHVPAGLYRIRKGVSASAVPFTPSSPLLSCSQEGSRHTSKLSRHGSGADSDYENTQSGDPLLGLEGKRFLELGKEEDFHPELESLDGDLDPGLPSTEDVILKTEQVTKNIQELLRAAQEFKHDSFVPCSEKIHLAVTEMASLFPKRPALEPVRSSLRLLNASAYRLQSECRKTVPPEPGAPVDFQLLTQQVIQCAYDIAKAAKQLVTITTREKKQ

T1: MAS1 (proto-oncogene MAS type I), TAP-tagged (human) (UniProt P04201)
T1 sequence: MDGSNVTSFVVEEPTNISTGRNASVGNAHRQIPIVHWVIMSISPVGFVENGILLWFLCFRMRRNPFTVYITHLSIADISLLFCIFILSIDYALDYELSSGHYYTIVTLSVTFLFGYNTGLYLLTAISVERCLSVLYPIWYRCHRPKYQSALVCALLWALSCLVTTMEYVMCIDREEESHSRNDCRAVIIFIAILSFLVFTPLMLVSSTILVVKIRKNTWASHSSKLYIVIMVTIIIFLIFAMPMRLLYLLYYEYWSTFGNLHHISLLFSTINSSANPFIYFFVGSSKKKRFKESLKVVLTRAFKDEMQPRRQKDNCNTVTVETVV

B1: PPP6R1 (protein, UniProt Q9UPN7 1-881)
chain: MFWKFDLHTSSHLDTLLEREDLSLPELLDEEDVLQECKVVNRKLLDFLLQPPHLQAMVAWVTQEPPDSGEERLRYKYPSVACEILTSDVPQINDALGADESLLNRLYGFLQSTGSLNPLLASFFSKVMGILINRKTDQLVSFLRKKDDFVDLLLQHIGTSAIMDLLLRLLTCVERPQLRQDVVNWLNEEKIVQRLIEQIHPSKDENQHSNASQSLCDIIRLSREQMIQVQDSPEPDQLLATLEKQETIEQLLSNMFEGEQSQSVIVSGIQVLLTLLEPRRPRSESVTVNSFFSSVDGQLELLAQGALESTVSSVGALHALRPRLSCFHQLLLEPPKLEPLQMTWGMLAPPLGNTRLHVVKLLASALSANDAALTHELLALDVPNTMLDLFFHYVFNNFLHAQVEGCVSTMLSLGPPPDSSPETPIQNPVVKHLLQQCRLVERILTSWEENDRVQCAGGPRKGYMGHLTRVAGALVQNTEKGPNAEQLRQLLKELPSEQQEQWEAFVSGPLAETNKKNMVDLVNTHHLHSSSDDEDDRLKEFNFPEEAVLQQAFMDFQMQRMTSAFIDHFGFNDEEFGEQEESVNAPFDKTANITFSLNADDENPNANLLEICYKDRIQQFDDDEEEEDEEEAQGSGESDGEDGAWQGSQLARGARLGQPPGVRSGGSTDSEDEEEEDEEEEEDEEGIGCAARGGATPLSYPSPGPQPPGPSWTATFDPVPTDAPTSPRVSGEEELHTGPPAPQGPLSVPQGLPTQSLASPPARDALQLRSQDPTPPSAPQEATEGSKVTEPSAPCQALVSIGDLQATFHGIRSAPSSSDSATRDPSTSVPASGAHQPPQTTEGEKSPEPLGLPQSQSAQALTPPPIPNGSAPEGPASPGSQ
B2: SNTA, endogenous (protein, UniProt Q13424 1-505)
chain: MASGRRAPRTGLLELRAGAGSGAGGERWQRVLLSLAEDVLTVSPADGDPGPEPGAPREQEPAQLNGAAEPGAGPPQLPEALLLQRRRVTVRKADAGGLGISIKGGRENKMPILISKIFKGLAADQTEALFVGDAILSVNGEDLSSATHDEAVQVLKKTGKEVVLEVKYMKDVSPYFKNSTGGTSVGWDSPPASPLQRQPSSPGPTPRNFSEAKHMSLKMAYVSKRCTPNDPEPRYLEICSADGQDTLFLRAKDEASARSWATAIQAQVNTLTPRVKDELQALLAATSTAGSQDIKQIGWLTEQLPSGGTAPTLALLTEKELLLYLSLPETREALSRPARTAPLIATRLVHSGPSKGSVPYDAELSFALRTGTRHGVDTHLFSVESPQELAAWTRQLVDGCHRAAEGVQEVSTACTWNGRPCSLSVHIDKGFTLWAAEPGAARAVLLRQPFEKLQMSSDDGASLLFLDFGGAEGEIQLDLHSCPKTIVFIIHSFLSAKVTRLGLLA
B3: DTNB (protein, UniProt O60941 1-627)
chain: MIEESGNKRKTMAEKRQLFIEMRAQNFDVIRLSTYRTACKLRFVQKRCNLHLVDIWNMIEAFRDNGLNTLDHTTEISVSRLETVISSIYYQLNKRLPSTHQISVEQSISLLLNFMIAAYDSEGRGKLTVFSVKAMLATMCGGKMLDKLRYVFSQMSDSNGLMIFSKFDQFLKEVLKLPTAVFEGPSFGYTEHSVRTCFPQQRKIMLNMFLDTMMADPPPQCLVWLPLMHRLAHVENVFHPVECSYCRCESMMGFRYRCQQCHNYQLCQNCFWRGHAGGPHSNQHQMKEHSSWKSPAKKLSHAISKSLGCVPTREPPHPVFPEQPEKPLDLAHIVPPRPLTNMNDTMVSHMSSGVPTPTKRLQYSQDIPSHLADEHALIASYVARLQHCARVLDSPSRLDEEHRLIARYAARLAAEAGNVTRPPTDLSFNFDANKQQRQLIAELENKNREILQEIQRLRLEHEQASQPTPEKAQQNPTLLAELRLLRQRKDELEQRMSALQESRRELMVQLEELMKLLKEEEQKQAAQATGSPHTSPTHGGGRPMPMPVRSTSAGSTPTHCPQDSLSGVGGDVQEAFAQGTRRNLRNDLLVAADSITNTMSSLVKELHSAEEGAEEEEEKMQNGKDRG
B4: ARHGEF6 (protein, UniProt Q15052 1-776)
chain: MNPEEQIVTWLISLGVLESPKKTICDPEEFLKSSLKNGVVLCKLINRLMPGSVEKFCLDPQTEADCINNINDFLKGCATLQVEIFDPDDLYSGVNFSKVLSTLLAVNKATEDQLSERPCGRSSSLSAANTSQTNPQGAVSSTVSGLQRQSKTVEMTENGSHQLIVKARFNFKQTNEDELSVCKGDIIYVTRVEEGGWWEGTLNGRTGWFPSNYVREIKSSERPLSPKAVKGFETAPLTKNYYTVVLQNILDTEKEYAKELQSLLVTYLRPLQSNNNLSTVEVTSLLGNFEEVCTFQQTLCQALEECSKFPENQHKVGGCLLSLMPHFKSMYLAYCANHPSAVNVLTQHSDELEQFMENQGASSPGILILTTNLSKPFMRLEKYVTLLQELERHMEDTHPDHQDILKAIVAFKTLMGQCQDLRKRKQLELQILSEPIQAWEGEDIKNLGNVIFMSQVMVQYGACEEKEERYLMLFSNVLIMLSASPRMSGFIYQGKIPIAGTVVTRLDEIEGNDCTFEITGNTVERIVVHCNNNQDFQEWLEQLNRLIRGPASCSSLSKTSSSSCSAHSSFSSTGQPRGPLEPPQIIKPWSLSCLRPAPPLRPSAALGYKERMSYILKESSKSPKTMKKFLHKRKTERKPSEEEYVIRKSTAALEEDAQILKVIEAYCTSANFQQGHGSSTRKDSIPQVLLPEEEKLIIEETRSNGQTIMEEKSLVDTVYALKDEVRELKQENKRMKQCLEEELKSRRDLEKLVRRLLKQTDECIRGESSSKTSILP

How the values were obtained:
[1] = biological target: TAP-SCRIB (human) (UniProt Q14160); assay: affinity purification with mass spectrometry; TAP/MS; TAP-SCRIB co-expressed with WT ADRA1D in HEK293T cells
[2] = biological target: TAP-SCRIB (human) (UniProt Q14160); assay: affinity purification with mass spectrometry; TAP/MS; TAP-tagged bait transfected alone (or with empty vector) in HEK293T cells; TEV cleavage omitted; eluates on Velos-Pro Orbitrap Elite; protein FDR 2.5%
[3] = biological target: TAP-SCRIB (human) (UniProt Q14160); assay: affinity purification with mass spectrometry; TAP/MS; TAP-SCRIB co-expressed with ADRA1D–ΔPDZ in HEK293T cells
[4] = biological target: TAP–ADRA1D (human) (UniProt P25100); assay: affinity purification with mass spectrometry; TAP/MS; TAP–ADRA1D transfected in MCF-7 cells
[5] = biological target: TAP–ADRA1D (human) (UniProt P25100); assay: affinity purification with mass spectrometry; TAP/MS; TAP–ADRA1D transfected in A549 cells
[6] = biological target: T1, MAS1 (proto-oncogene MAS type I), TAP-tagged (human); assay: affinity purification with mass spectrometry; TAP/MS; TAP-tagged bait transfected alone (or with empty vector) in HEK293T cells; TEV cleavage omitted; eluates on Velos-Pro Orbitrap Elite; protein FDR 2.5%
[7] = biological target: TAP–ADRA1D (human) (UniProt P25100); assay: affinity purification with mass spectrometry; TAP/MS; TAP–ADRA1D transfected in HeLa cells
[8] = biological target: TAP–ADRA1D (human) (UniProt P25100); assay: affinity purification with mass spectrometry; TAP/MS; TAP–ADRA1D transfected in SW480 cells
[9] = biological target: TAP–ADRA1D (human) (UniProt P25100); assay: affinity purification with mass spectrometry; TAP/MS; TAP–ADRA1D transfected in A375 cells

Molecule	binding [1]	binding [2]	binding [3]	binding [4]	other results
ARHGEF7 (from UniProt Q14155 1-803)	binds	binds	binds	–	–
ADRA1D (ectopic, co-expressed with TAP-SCRIB) (from UniProt P25100 1-572) (receptor)	binds	–	–	–	–
MAPK1 (from UniProt P28482 1-360)	–	–	–	binds	binding [5]: binds
MAPK3 (from UniProt P27361 1-379)	–	–	–	binds	–
GIT1 (from UniProt Q9Y2X7 1-761)	binds	binds	binds	–	–
B1	–	–	–	–	binding [6]: binds
B2	–	–	–	–	binding [7]: binds
B3	–	–	–	binds	binding [8]: binds; binding [5]: binds; binding [7]: binds; binding [9]: binds
B4	binds	binds	binds	–	–
